Laboratory results reported in patent publication US20220218659A1, “PI3K/LYN-ACLY Signaling Inhibition” (Institute For Cancer Research d/b/a The Research Institute …, priority 2019, published 2022).
For part of these data: For at least one compound, name, drawing or mass did not settle the structure. Some entries share one result that the patent states for a list of compounds.

By UniProt entry, the sequences of proteins in these tests, tags left out. Where a name states a change or a piece, a line headed by the entry shows the natural chain unless it says otherwise.
UniProt P07948: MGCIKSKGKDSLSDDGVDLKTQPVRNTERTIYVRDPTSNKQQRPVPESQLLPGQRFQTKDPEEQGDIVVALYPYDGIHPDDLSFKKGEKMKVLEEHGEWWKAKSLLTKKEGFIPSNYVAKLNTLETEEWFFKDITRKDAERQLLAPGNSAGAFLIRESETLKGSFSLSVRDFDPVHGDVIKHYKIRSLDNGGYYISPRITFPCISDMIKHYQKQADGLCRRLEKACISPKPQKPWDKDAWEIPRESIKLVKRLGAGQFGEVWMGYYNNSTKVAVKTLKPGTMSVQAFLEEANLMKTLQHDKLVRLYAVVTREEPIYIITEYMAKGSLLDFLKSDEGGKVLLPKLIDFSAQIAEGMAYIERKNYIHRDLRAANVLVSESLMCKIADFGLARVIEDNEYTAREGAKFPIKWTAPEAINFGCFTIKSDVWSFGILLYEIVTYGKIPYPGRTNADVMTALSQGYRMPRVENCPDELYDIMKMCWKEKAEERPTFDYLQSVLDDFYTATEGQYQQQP

Columns and labels:
[1] = system: Acetyl-CoA; assay: Acetyl-CoA measurement in HL-60 cells; assay type: cell-based; conditions: 16 hours
Protocol: HL-60 cells were cultured as above, treated with Bafetinib (500 nM), PI3K inhibitors (1 μM) for 16 hours. After treatment, cells were washed with medium and harvested for acetyl-CoA extraction from 5×10^6 cells per condition in triplicate, acetyl-CoA levels were measured using Pico-Probe Acetyl-CoA Fluorometric Assay kit (BioVision, Milpitas, Calif.) following the manufacturer's instructions.

[2] = biological target: T1, Lyn (Homo sapiens, UniProt P07948); assay: Lyn activity (p-SRC Y416 / p-LYN Y396 blot) in HL-60 cells; assay type: cell-based; conditions: 16 hours
T1 construct: endogenous in cells; host or cells: HL-60

[3] = system: PI/PIP/PIP2; assay: Lipidomic analysis of PI, PIP and PIP2 in HL-60 cells; assay type: cell-based; conditions: 16 hours, 10% FBS in RPMI
Protocol: Phosphoinositides from HL60 cells treated with PI3K and Lyn inhibitors were compared with those from control cells (0.1% DMSO in culture medium). HL60 cells were treated with PI3K inhibitors LY294002, BKM120 or the Lyn inhibitor Bafetinib for 16 hours followed by TCA precipitation and freezing at −80° C. TCA precipitates were spiked with 20 ng of two internal standards (PIP 37:4; PIP2 37:4) and subjected to lipid extraction as described below and analyzed via LC/MS/MS. TMS-diazomethane derivatized phospholipids including phosphatidyl inositol (PI), phosphatidylinositol phosphate (PIP) and phosphatidylinositol bisphosphate (PIP2) values were measured using UPLC/MS/MS MRM Mass Spectrometry. […] Phosphatidylinositol trisphosphate (PIP3) was also measured but levels were too low in these cells to be analyzed. The endogenous PIP3 is several orders of magnitude less abundant than PIP2 in cells. It is well established that the basal PIP3 level is often undetectable in cells due to its low quantity and short halflife. […]
UPLC/MS: Dried, methylated cell extracts were suspended in 100 μl 100% methanol (LC-MS Optima grade, Fisher) prior to chromatographic separation and MS/MS. […] The effluent was monitored by a Waters XEVO TQ-S MS/MS in multiple reaction monitoring (MRM) in positive ion mode. […]

[4] = system: ACLY binding to PIP2; assay: Phospho-ACLY bound to PIP2 (PIP2 immunoprecipitation and western blotting) in transfected HEK293T cells; assay type: cell-based, human; conditions: ACLY-HA with active SRC kinase, 2 μM, 15 hours

Structure (SMILES): Cc1ccc(NC(=O)c2ccc(CN3CC[C@H](N(C)C)C3)c(C(F)(F)F)c2)cc1Nc1nccc(-c2cncnc2)n1 [Bafetinib]
- synthesis of Acetyl-CoA [1]: significantly prevented

Structure (SMILES): Nc1cc(C(F)(F)F)c(-c2cc(N3CCOCC3)nc(N3CCOCC3)n2)cn1 [BKM120, Buparlisib]
- Lyn activity partially suppressed ([2]; 500 nM BKM120): 40-50%

Structure (SMILES): O=c1cc(N2CCOCC2)oc2c(-c3ccccc3)cccc12 [LY294002]
- Lyn activity partially suppressed ([2]; 2.5 μM LY294002): 40-50%
- synthesis of Acetyl-CoA [1]: significantly prevented
- levels of total PI/PIP/PIP2 compared to DMSO control [3]: overall decrease

Structure (SMILES): Cc1nc(Nc2ncc(C(=O)Nc3c(C)cccc3Cl)s2)cc(N2CCN(CCO)CC2)n1 [Dasatinib]
- phospho-ACLY bound to PIP2 versus DMSO [4]: significant difference
